Measurements from patent US20140017669.
For some assays here: No signal at the amounts used counts as a negative. For some assays here: Protein sequences can lack the tags named with them. For some assays here: Construct, isoform or probe ends are uncertain for at least one entry. For some assays here: Weaker means in comparison with the reference protein, sequence or condition of that experiment.

What was measured:
Assay in all cases: enzyme reaction in vitro
MnlI = settings: purified recombinant protein, protein details: New England Biolabs
BssKI = settings: NEBuffer 3, 37 C, purified recombinant protein, protein details: New England Biolabs, label: internal fluorescein, IAbFQ
StyD4I = settings: NEBuffer 2, 30 C, purified recombinant protein, protein details: New England Biolabs, label: internal fluorescein, IAbFQ
AlwI = settings: NEBuffer 4 plus 15 mM MgCl2, 37 C, purified recombinant protein, protein details: New England Biolabs, label: 6-FAM, IAbFQ
MspI = target: T1, MspI (UniProt P11405); settings: NEBuffer 4, 37 C, purified recombinant protein, protein details: New England Biolabs, label: IAbFQ, 6-FAM
T1 sequence (looked up, limits assumed): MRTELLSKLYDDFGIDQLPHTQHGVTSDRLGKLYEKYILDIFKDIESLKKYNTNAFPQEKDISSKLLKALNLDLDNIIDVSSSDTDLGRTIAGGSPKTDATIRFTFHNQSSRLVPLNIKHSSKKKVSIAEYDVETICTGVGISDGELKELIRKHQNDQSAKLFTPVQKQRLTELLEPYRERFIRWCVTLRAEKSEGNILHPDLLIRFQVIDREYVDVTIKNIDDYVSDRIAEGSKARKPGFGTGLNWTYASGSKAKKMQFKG

EarI = settings: NEBuffer 4, 35 C, purified recombinant protein, protein details: New England Biolabs, label: JOE, BHQ
RsaI = settings: NEBuffer 4, 30 C, purified recombinant protein, protein details: New England Biolabs, label: IAbFQ, 6-FAM
Hpy8I = settings: FD buffer, 30 C, purified recombinant protein, protein details: Fermentas, label: IAbFQ, 6-FAM
PmeI = settings: NEBuffer 4, 30 C, purified recombinant protein, protein details: New England Biolabs, label: IAbFQ, 6-FAM
[1] = NEBuffer 4, 10 mM extra MgCl2, 35 C
[2] = single-stranded DNA, variant of BssKI/StyD4I CESA
[3] = single-stranded DNA, variant of Hpy8I/RsaI CESA
[4] = NEBuffer 4, 30 C, label: IAbFQ, 6-FAM

## CATCTCTTCCTCAGAGCCTGACTT / AAGTCAGGTGCTG / AGGAAGAGATG [Ex5 Rn5 CESA]
MnlI; [1]
  activity on this sequence: active

## CATCTCTTCCTCAGAGCCTGACTT / AAGTCAGGTGCTGAG / GAAGAGATG [Ex5 Rn2 CESA]
MnlI; [1]
  activity on this sequence: active

## CATCTCTTCCTCAGAGCCTGACTT / AAGTCAGGTGCTGAGG / AAGAGATG [Ex5 Rn1 CESA]
MnlI; NEBuffer 4, 15 mM extra MgCl2, 35 C
  activity on this sequence: active

## CATCTCTTCCTCAGAGCCTGACTT / AAGTCAGGTGCTGAGG [Ex5 Rn1 PESA]
MnlI; NEBuffer 4, 15 mM extra MgCl2, 35 C, variant of Ex5 Rn1 CESA
  activity on this sequence: less active

## CTCTCCAGGCAAGAGGT / ACCTACTTGCCT / GGAAGAGAT [BssKI/StyD4I CESA]
BssKI
  activity on this sequence: active
StyD4I
  activity on this sequence: not active

## CTCTCCAGGCAAGAGGT / ACCTACTTGCCT [BssKI/StyD4I PESA]
BssKI; variant of BssKI/StyD4I CESA
  activity on this sequence: active
StyD4I; variant of BssKI/StyD4I CESA
  activity on this sequence: not active

## CTCTCCAGGCAAGAGGT / ACCTACTTGCCTGGAAGAGAT [BssKI/StyD4I full duplex]
BssKI
  activity on this sequence: active
StyD4I
  activity on this sequence: active

## CTCTCCAGGCAAGAGGT [RE4F1-FIB]
BssKI; [2]
  activity on this sequence: active
StyD4I; [2]
  activity on this sequence: not active

## CTCTTCCACTTGATCCCGTAT / ATACGGGATCAAGT / GGAAGAGAT [AlwI CESA]
AlwI
  activity on this sequence: active

## CTCTTCCACTTGATCCCGTAT / ATACGGGATCAAGT [AlwI PESA]
AlwI; variant of AlwI CESA
  activity on this sequence: active

## CTCTTCCACTTGATCCCGTAT / ATACGGGATCAAGTGGAAGAGAT [AlwI full duplex]
AlwI
  activity on this sequence: active

## CTCTTCCACTTGATCCCGTAT [EAS7-1(21)-FB]
AlwI; single-stranded DNA, variant of AlwI CESA
  activity on this sequence: not active

## CTCTTCCGGAGTTGCT / AGCAACTCC / GGAAGAGAT [MspI CESA]
MspI
  activity on this sequence: active

## CTCTTCCGGAGTTGCT / AGCAACTCC [MspI PESA]
MspI; variant of MspI CESA
  activity on this sequence: not active

## CTCTTCCGGAGTTGCT / AGCAACTCCGGAAGAGAT [MspI full duplex]
MspI
  activity on this sequence: active

## CTCTTCCGGAGTTGCT [EAS1-4(16)-BF]
MspI; single-stranded DNA, variant of MspI CESA
  activity on this sequence: not active

## CTCTTCCTCAGCACCTGATT / AATCAGGTGCTGA / GGAAGAGAT [Ex5 Rn3 CESA (EAS1_10/EAS2_11/DF1)]
MnlI; [1]
  activity on this sequence: active

## CTCTTCCTCAGCACCTGATT / AATCAGGTGCTGA [Ex7 PESA A]
MnlI; no DF control, label: IAbFQ, JOE, variant of Ex7 CESA A
  activity on this sequence: not active

## CTCTTCCTCAGCAGTTCATC / GATGAACTGCTGA / GGAAGAGAT [EarI CESA (RE1F1(20)-JB/RE1S1(13)-5/D1F-3Sub1)]
EarI
  activity on this sequence: active

## CTCTTCCTCAGCAGTTCATC / GATGAACTGCTGA / GGAAGAGAT [Ex2 CESA (EAS1-1(20)-JB/EAS2-1(13)/DF1)]
MnlI; DF generated by MNAzyme, label: JOE, BHQ1
  activity on this sequence: active

## CTCTTCCTCAGCAGTTCATC / GATGAACTGCTGA [EarI PESA]
EarI
  activity on this sequence: not active

## CTCTTCCTCAGCAGTTCATC [RE1F1(20)-JB]
EarI; single-stranded DNA
  activity on this sequence: not active

## CTCTTCCTCAGCAGTTCATT / AATGAACTGCTGA / GGAAGAGAT [Ex4 CESA (EAS1-1(20)-BJa/EAS2-1(13)-Ba/DF1)]
MnlI; DF generated by MNAzyme, label: IAbFQ, JOE
  activity on this sequence: active

## CTCTTCCTCTCTTCCCGGATGTCGGCCTCCTAGTACAGCG / TAGGATGTGAAGACGAGGAAGAGAT [Ex10 partially complementary duplex (EAS1_1/ASC-RE5F2-FB)]
MnlI; NEBuffer 4, 35 C, label: IAbFQ, 6-FAM, BHQ1
  activity on this sequence: active

## TAGGATGTGAAGACGAGGAAGAGAT [ASC-RE5F2(25)-FB]
MnlI; NEBuffer 4, 35 C, label: 6-FAM, BHQ1, single-stranded DNA
  activity on this sequence: not active

## TCAGCAGTACACAGAACC (double strand) [Hpy8I/RsaI full duplex]
RsaI
  activity on this sequence: active
Hpy8I
  activity on this sequence: active

## TCAGCAGTACACAGAACC / GGTTCTGTGT / AATGAACTGCTGA [Hpy8I/RsaI EIC]
RsaI; variant of Hpy8I/RsaI CESA
  activity on this sequence: not active
Hpy8I; variant of Hpy8I/RsaI CESA
  activity on this sequence: not active

## TCAGCAGTACACAGAACC / GGTTCTGTGT / ACTGCTGAG [Hpy8I/RsaI CESA]
RsaI
  activity on this sequence: active
Hpy8I
  activity on this sequence: active

## TCAGCAGTACACAGAACC / GGTTCTGTGT [Hpy8I/RsaI PESA]
RsaI; variant of Hpy8I/RsaI CESA
  activity on this sequence: not active
Hpy8I; variant of Hpy8I/RsaI CESA
  activity on this sequence: not active

## TCAGCAGTACACAGAACC [EAS3-1(18)-BF]
RsaI; [3]
  activity on this sequence: not active
Hpy8I; [3]
  activity on this sequence: not active

## TCAGCAGTTTAAACAACC (double strand) [PmeI full duplex]
PmeI
  activity on this sequence: active

## TCAGCAGTTTAAACAACC / GGTTGTTTAA / AATGAACTGCTGA [PmeI EIC]
PmeI; variant of PmeI CESA
  activity on this sequence: not active

## TCAGCAGTTTAAACAACC / GGTTGTTTAA / ACTGCTGAG [PmeI CESA]
PmeI
  activity on this sequence: active

## TCAGCAGTTTAAACAACC / GGTTGTTTAA [PmeI PESA]
PmeI; variant of PmeI CESA
  activity on this sequence: not active

## TCAGCAGTTTAAACAACC [EAS5-1(18)-BF]
PmeI; single-stranded DNA, variant of PmeI CESA
  activity on this sequence: not active

## TCAGTCCCACGTGTGA / TCAGCACCTCACACGTGGGAAGAG [Ex7 PESA B]
MnlI; no DF control, label: 6-FAM, IAbFQ, variant of Ex7 CESA B
  activity on this sequence: not active

## TCCGCAGCCTCCCTTCTCTAC / GAGGCTGCGGA / GTAGAGAAGG [Ex5 Rn6 candidate CESA]
MnlI; [4]
  activity on this sequence: not active

## TCCGCAGCCTCCCTTCTCTAC / GAGGCTGCGGA [Ex5 Rn6 PESA]
MnlI; NEBuffer 4, 30 C, label: IAbFQ, 6-FAM, variant of Ex5 Rn6 candidate CESA
  activity on this sequence: not active

## TCCGCAGCCTCCCTTCTCTAC / GGGAGGCTGCGGA / GTAGAGAA [Ex5 Rn7 CESA]
MnlI; [4]
  activity on this sequence: active

## TCCGCAGCCTCCCTTCTCTAC / GGGAGGCTGCGGA [Ex5 Rn7 PESA]
MnlI; NEBuffer 4, 30 C, label: IAbFQ, 6-FAM, variant of Ex5 Rn7 CESA
  activity on this sequence: not active

## TGGTTGAGCAGAGAGGGATCATC / TCTCTGCTCAACCA / GATGATCCC [Ex5 Rn8 CESA]
MnlI; NEBuffer 4, 35 C, label: IAbFQ, 6-FAM
  activity on this sequence: active
